# Assay results published in article PMC7864571.
# Where two headings read alike, the source gives them in different places. No constants are given. Whether binding was seen depends on the method and setting. In cells and extracts the contact can be indirect. Some results given as binding are weak or reduced against the parent protein; the word gives no strength.
# T1: NXF1, endogenous (mRNA export receptor) (human (endogenous in 293T)) (UniProt Q9UBU9)
# T1 sequence: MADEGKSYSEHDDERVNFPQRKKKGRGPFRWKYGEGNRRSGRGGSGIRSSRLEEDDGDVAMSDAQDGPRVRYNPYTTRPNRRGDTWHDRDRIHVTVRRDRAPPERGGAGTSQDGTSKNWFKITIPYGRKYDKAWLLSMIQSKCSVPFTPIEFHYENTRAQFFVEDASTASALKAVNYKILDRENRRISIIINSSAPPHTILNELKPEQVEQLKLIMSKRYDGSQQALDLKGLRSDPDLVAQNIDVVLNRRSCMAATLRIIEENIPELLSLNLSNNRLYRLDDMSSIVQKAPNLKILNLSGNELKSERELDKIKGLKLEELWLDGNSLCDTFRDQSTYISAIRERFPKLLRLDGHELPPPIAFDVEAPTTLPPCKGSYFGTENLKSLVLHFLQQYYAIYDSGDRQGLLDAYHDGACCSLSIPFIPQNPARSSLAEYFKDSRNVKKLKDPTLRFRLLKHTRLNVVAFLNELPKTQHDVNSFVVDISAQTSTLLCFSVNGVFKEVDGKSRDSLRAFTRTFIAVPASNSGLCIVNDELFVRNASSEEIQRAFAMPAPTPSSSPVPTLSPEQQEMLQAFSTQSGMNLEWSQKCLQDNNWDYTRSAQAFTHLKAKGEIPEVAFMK
# B1: THOC6, endogenous (protein, UniProt Q86W42 1-341)
# chain: MERAVPLAVPLGQTEVFQALQRLHMTIFSQSVSPCGKFLAAGNNYGQIAIFSLSSALSSEAKEESKKPVVTFQAHDGPVYSMVSTDRHLLSAGDGEVKAWLWAEMLKKGCKELWRRQPPYRTSLEVPEINALLLVPKENSLILAGGDCQLHTMDLETGTFTRVLRGHTDYIHCLALRERSPEVLSGGEDGAVRLWDLRTAKEVQTIEVYKHEECSRPHNGRWIGCLATDSDWMVCGGGPALTLWHLRSSTPTTIFPIRAPQKHVTFYQDLILSAGQGRCVNQWQLSGELKAQVPGSSPGLLSLSLNQQPAAPECKVLTAAGNSCRVDVFTNLGYRAFSLSF
# B2: THOC3, endogenous (protein, UniProt Q96J01 1-351)
# chain: MAVPAAAMGPSALGQSGPGSMAPWCSVSSGPSRYVLGMQELFRGHSKTREFLAHSAKVHSVAWSCDGRRLASGSFDKTASVFLLEKDRLVKENNYRGHGDSVDQLCWHPSNPDLFVTASGDKTIRIWDVRTTKCIATVNTKGENINICWSPDGQTIAVGNKDDVVTFIDAKTHRSKAEEQFKFEVNEISWNNDNNMFFLTNGNGCINILSYPELKPVQSINAHPSNCICIKFDPMGKYFATGSADALVSLWDVDELVCVRCFSRLDWPVRTLSFSHDGKMLASASEDHFIDIAEVETGDKLWEVQCESPTFTVAWHPKRPLLAFACDDKDGKYDSSREAGTVKLFGLPNDS
# Key:
# Assay in all cases: co-IP
# [1] = biological target: 3xFlag-Nsp1 (SARS-CoV-2 Nsp1) (SARS-CoV-2) (UniProt P0DTD1)
# [2] = biological target: T1, NXF1, endogenous (mRNA export receptor) (human (endogenous in 293T))
# [3] = biological target: 3xFlag-Nsp1 (SARS-CoV-2 Nsp1) (SARS-CoV-2) (UniProt P0DTD1); remark: listed apart in the source
Molecule,binding [1],also measured
"GANP (germinal center-associated nuclear protein), endogenous (from UniProt O60318 1-1980)",no binding,
"mRNA export factor/RNA helicase UAP56 (DDX39B), endogenous (from UniProt Q13838 1-428)",binds,
B1,,binding [2]: binds
B2,,binding [3]: no binding
